# PubChem BioAssay AID1259308 | NCATS | 2017
# Test: 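Genes whose loss raises luciferase production in HEK293 cells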 (primary screen)
# Cell system: human HEK293 embryonic kidney cells stably expressing firefly luciferase (HEK-CMV-Luc2-Hygro)
# Reagents: single siRNA against human genes, 0.8 pmol siRNA per well
# Duration: 72 h
# Read-out: 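Reporter luminescence and viable-cell signal on separate replicate plates, given as percent of non-targeting control and median/MAD z-scores, plus per-cell luciferase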
# Scale: total luciferase, z-score and total luciferase, % of control: higher = more reporter protein produced; luciferase per cell, z-score: higher = more reporter output per viable cell
# Active means: 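Active when the median/MAD z-score for overall luciferase is greater than 3; a gene was taken forward for validation with new siRNAs if at least two of its three siRNAs passed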
# Meaning of the calls: active = raised luciferase; inactive = no rise
# In all, the deposit lists about 59,000 reagents; below is a random part of them. Of all reagents, about 1,510 (2.6%) got an active call. 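Calls use total luciferase alone and ignore viability, so some active siRNAs may act by altering cell number.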 Not all columns of the deposit are shown. No sequences are given here.
Target gene,PubChem SID,"total luciferase, z-score","total luciferase, % of control","luciferase per cell, z-score",Call
SMNDC1,SID160728080,-1.28,56.3,-0.31,inactive
SMNDC1,SID160728081,2.1,124,2.78,inactive
SMNDC1,SID160728082,2.12,124,3.56,inactive
COL11A1,SID160746379,-0.832,65.3,-0.158,inactive
COL11A1,SID160746390,-1.9,44.2,-2.32,inactive
COL11A1,SID160746399,1.8,118,1.38,inactive
IGFBP2,SID160723878,-0.0118,81.7,-0.371,inactive
IGFBP2,SID160733137,0.382,89.5,-0.115,inactive
IGFBP2,SID160775631,0.08,83.5,0.225,inactive
GEMIN6,SID160749553,2.3,128,1.85,inactive
GEMIN6,SID160749554,-0.714,67.7,-1.11,inactive
GEMIN6,SID160749556,-0.195,78,0.0188,inactive
DOP1A,SID160735282,0.454,90.9,1.65,inactive
DOP1A,SID160735283,0.595,93.7,0.441,inactive
DOP1A,SID160735284,0.387,89.6,0.193,inactive
TMED10,SID160729655,-0.0411,81.1,0.339,inactive
TMED10,SID160729656,1.85,119,1.94,inactive
TMED10,SID160730487,-0.504,71.9,-0.559,inactive
DDX5,SID160753365,0.249,86.8,-0.404,inactive
DDX5,SID160753376,3.01,142,2.07,active
DDX5,SID160753387,0.298,87.8,-0.379,inactive
RTP1,SID160757127,0.162,85.1,0.381,inactive
RTP1,SID160757128,-1.29,56.2,-1.7,inactive
RTP1,SID160757129,-1.27,56.5,-0.236,inactive
ACTL6B,SID160740775,0.933,100,1.01,inactive
ACTL6B,SID160740776,-1.24,57.1,-1.14,inactive
ACTL6B,SID160740777,3.05,143,2.16,active
ULK4P3,SID160724667,1.27,107,1.99,inactive
ULK4P3,SID160724668,0.571,93.2,2.12,inactive
ULK4P3,SID160735157,-0.0362,81.2,0.572,inactive
FBXL15,SID160724547,-0.756,66.8,-0.599,inactive
FBXL15,SID160724548,0.00752,82,0.323,inactive
FBXL15,SID160748758,1.48,111,1.97,inactive
PCGF1,SID160752679,7.54,232,5.5,active
PCGF1,SID160752680,0.288,87.6,0.679,inactive
PCGF1,SID160752682,1.11,104,1.26,inactive
AGR2,SID160728707,-0.737,67.2,-0.419,inactive
AGR2,SID160728708,0.159,85.1,0.267,inactive
AGR2,SID160728709,1.44,111,1.39,inactive
EMC8,SID160728186,-0.441,73.1,-0.345,inactive
EMC8,SID160728187,-0.575,70.5,-0.716,inactive
EMC8,SID160732271,-1.6,50.1,-2.26,inactive
MPP3,SID160777435,-0.394,74.1,0.324,inactive
MPP3,SID160777436,-0.798,66,-0.642,inactive
MPP3,SID160777437,-0.967,62.7,-0.848,inactive
REEP5,SID160719459,0.68,95.4,0.592,inactive
REEP5,SID160719460,-1.45,53,-2.06,inactive
REEP5,SID160719461,0.135,84.6,1.31,inactive
RTN1,SID160716250,1.26,107,0.585,inactive
RTN1,SID160716251,1.44,111,0.345,inactive
RTN1,SID160733731,0.0791,83.5,-0.543,inactive
ERCC5,SID160761660,-0.642,69.1,-0.73,inactive
ERCC5,SID160761671,-2.84,25.4,-3.43,inactive
ERCC5,SID160761682,0.42,90.2,0.104,inactive
SFTPD,SID160716637,-0.954,62.9,-0.738,inactive
SFTPD,SID160716638,-0.833,65.3,-1.35,inactive
SFTPD,SID160716639,-1.72,47.8,-1.86,inactive
RARA,SID160715669,2.07,123,1.11,inactive
RARA,SID160715670,-0.865,64.7,-1.23,inactive
RARA,SID160715671,0.192,85.7,0.164,inactive
NKRF,SID160744651,1.44,110,1.92,inactive
NKRF,SID160744652,-0.884,64.3,-0.586,inactive
NKRF,SID160744653,0.757,96.9,0.347,inactive
CHAMP1,SID160762943,0.818,98.2,1.49,inactive
CHAMP1,SID160762944,0.55,92.8,0.24,inactive
CHAMP1,SID160762945,0.0706,83.3,-0.861,inactive
MADCAM1,SID160719684,2.26,127,2.62,inactive
MADCAM1,SID160719685,0.729,96.4,0.898,inactive
MADCAM1,SID160735011,3.11,144,2.98,active
RBM12,SID160725886,0.914,100,0.853,inactive
RBM12,SID160725893,2.03,122,1.85,inactive
RBM12,SID160725900,0.23,86.5,1.05,inactive
SLC41A3,SID160742566,1.06,103,1.18,inactive
SLC41A3,SID160742567,1.81,118,0.871,inactive
SLC41A3,SID160742568,-0.186,78.2,0.333,inactive

A stretch of the results above:
Target gene,PubChem SID,"total luciferase, z-score","total luciferase, % of control","luciferase per cell, z-score",Call
NKRF,SID160744653,0.757,96.9,0.347,inactive
CHAMP1,SID160762943,0.818,98.2,1.49,inactive
CHAMP1,SID160762944,0.55,92.8,0.24,inactive
CHAMP1,SID160762945,0.0706,83.3,-0.861,inactive
MADCAM1,SID160719684,2.26,127,2.62,inactive
MADCAM1,SID160719685,0.729,96.4,0.898,inactive
MADCAM1,SID160735011,3.11,144,2.98,active
RBM12,SID160725886,0.914,100,0.853,inactive
RBM12,SID160725893,2.03,122,1.85,inactive
